According to patent publication US10350271B2, “Lipidated peptides for lowering blood glucose” (USTAV ORGANICKE CHEMIE A BIOCHEMIE AKADEMIE VED CR, V.V.I., priority 2014, dated 2019):
For some assays here: Not every detail of the peptide structures is certain; ends, links or a residue may be inferred. At least one compound was matched to its structure with a doubt left. Numbered stars: 1 amine (or outer) side, 2 acyl side, 3 side chain; on linkers, the order of the positions; unused ones are H or OH. Side chains are listed from the residue outwards. Peptide text beside a SMILES is read from it. * marks the point of attachment. TTDA(Palmitoyl) = CCCCCCCCCCCCCCCC(=O)NCCCOCCOCCOCCCN*; Suc = O=C(CCC(=O)[*:2])[*:1]

Key:
[1] = biological target: T1, human PrRP receptor GPR10 (Homo sapiens, UniProt P49683); experiment: Competitive binding in CHO cells transfected with human GPR10 (human 125I-PrRP31)
T1 construct: host or cells: CHO cells
T1 sequence (P49683 1-370): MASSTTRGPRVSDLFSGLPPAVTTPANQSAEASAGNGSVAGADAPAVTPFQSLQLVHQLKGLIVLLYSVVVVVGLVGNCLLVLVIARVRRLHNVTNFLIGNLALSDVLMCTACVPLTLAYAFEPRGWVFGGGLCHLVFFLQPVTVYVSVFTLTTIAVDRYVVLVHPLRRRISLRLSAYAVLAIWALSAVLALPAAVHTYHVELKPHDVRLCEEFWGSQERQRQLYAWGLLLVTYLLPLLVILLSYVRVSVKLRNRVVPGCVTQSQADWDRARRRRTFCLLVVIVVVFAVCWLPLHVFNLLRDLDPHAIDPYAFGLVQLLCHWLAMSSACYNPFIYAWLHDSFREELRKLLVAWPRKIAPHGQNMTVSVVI
Description: (§1) Competitive binding experiments were performed according to Motulsky and Neubig (Motulsky, A., et al., “Analyzing radioligand binding data,” Curr Protoc Neurosci, Chapter 7, Unit 7.5, 2002). Binding experiments were conducted with rat pituitary cells, and with Chinese Hamster Ovary (CHO) cells as follows:
CHO cells transfected with human PrRP receptor GPR10 (Perkin Elmer, USA) were grown on 24-well plates coated with polyethyleneimine. The cells were grown to the optimal density of 40-80 thousand cells per well. The following agents were used for the experiment: binding buffer (25 mmol·l^−1 Tris, pH 7.4; 118 mmol·l^−1 NaCl, 10 mmol·l^−1 MgCl2, 10 mmol·l^−1 CaCl2, 5.5 mmol·l^−1 glucose, 0.5 mg/ml BSA), unlabeled analogs of PrRP (i.e. the analog being tested) at a final concentration between 10^−11 to 10^−4 mol·l^−1, and radiolabeled human ^125I-PrRP31 at a final concentration of 5×10^−11 mol·l^−1.
(§2) Plates were incubated for 60 minutes at room temperature. After incubation, the cells were solubilized in 0.1 mol/l solution of NaOH, and the radioactivity bound to the cells was counted using a γ-counter. The experiments were performed in duplicate, and repeated at least three times.
(§3) Graph Pad Prism Software (San Diego, Calif., USA) was used for evaluating the competitive binding experiments. Nonlinear regression was performed using a onsite binding model.

rat PrRP receptor = biological target: T2, rat PrRP receptor (Rattus norvegicus, UniProt Q64121); experiment: Competitive binding in RC-4B/C rat pituitary cells (125I-rat PrRP31); details: RC-4B/C cells, displacement of 125I-rat PrRP31; read-out: Ki, RC-4B/C rat pituitary cells ^25I-rat PrRP31
T2 construct: host or cells: RC-4B/C rat pituitary cell line
T2 sequence (Q64121 1-370): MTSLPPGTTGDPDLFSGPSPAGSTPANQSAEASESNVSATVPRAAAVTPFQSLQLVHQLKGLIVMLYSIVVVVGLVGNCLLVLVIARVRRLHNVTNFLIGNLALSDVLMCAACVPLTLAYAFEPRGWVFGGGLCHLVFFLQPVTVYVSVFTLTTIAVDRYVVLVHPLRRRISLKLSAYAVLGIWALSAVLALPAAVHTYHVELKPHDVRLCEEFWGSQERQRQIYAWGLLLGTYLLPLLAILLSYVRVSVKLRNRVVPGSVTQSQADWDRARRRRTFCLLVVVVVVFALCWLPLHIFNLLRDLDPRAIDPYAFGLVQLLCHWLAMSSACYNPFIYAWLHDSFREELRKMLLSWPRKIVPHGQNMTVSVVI
Description: as §1
The rat pituitary cell line RC-4B/C (ATCC, Manassas, USA) was grown on 24-well plates which had their bottom coated with polyethyleneimine. The cells were grown to the optimal density of 300-450 thousand cells per well. The following agents were used for the experiment: binding buffer (20 mmol·l^−1 HEPES, Ph 7.4; 118 mmol·l^−1 NaCl, 4.7 mmol·l^−1 KCl, 5 mmol·l^−1 MgCl2, 5.5 mmol·l^−1 glucose, 1 mg/ml BSA, 0.1 BPTI), unlabeled analogs of PrRP (i.e. the analog being tested) at a final concentration between 10^−11 to 10^−4 mol·l^−1, and rat ^125I-PrRP31 (labeled with radioactive Iodine-125) at a final concentration of […] (Maixnerová et al., 2011).
as §2, §3

CCCCCCCCCCCCCCCC(=O)N[C@@H](CO)C(=O)N[C@@H](CCCNC(=N)N)C(=O)N[C@H](C(=O)N[C@@H](Cc1c[nH]cn1)C(=O)N[C@@H](CCCNC(=N)N)C(=O)N[C@@H](Cc1c[nH]cn1)C(=O)N[C@@H](CO)C(=O)N[C@@H](CCSC)C(=O)N[C@@H](CCC(=O)O)C(=O)N[C@H](C(=O)N[C@@H](CCCNC(=N)N)C(=O)N[C@H](C(=O)N1CCC[C@H]1C(=O)N[C@@H](CC(=O)O)C(=O)N[C@H](C(=O)N[C@@H](CC(N)=O)C(=O)N1CCC[C@H]1C(=O)N[C@@H](C)C(=O)N[C@@H](Cc1c[nH]c2ccccc12)C(=O)N[C@@H](Cc1ccc(O)cc1)C(=O)N[C@@H](C)C(=O)N[C@@H](CO)C(=O)N[C@@H](CCCNC(=N)N)C(=O)NCC(=O)N[C@H](C(=O)N[C@@H](CCCNC(=N)N)C(=O)N1CCC[C@H]1C(=O)N[C@H](C(=O)NCC(=O)N[C@@H](CCCNC(=N)N)C(=O)N[C@@H](Cc1ccccc1)C(=O)NC)C(C)C)[C@@H](C)CC)[C@@H](C)CC)[C@@H](C)O)[C@@H](C)CC)[C@@H](C)O [Analog 44]
% of PrRP31, GPR10 human receptor transfected in CHO cells ([1]; affinity relative to PrRP31): 123%

CCCCCCCCCCCCCCCC(=O)NCCCOCCOCCOCCCNC(=O)CCC(=O)NCCCC[C@H](NC(=O)[C@@H](NC(=O)[C@H](CCC(=O)O)NC(=O)[C@H](CCSC)NC(=O)[C@H](CO)NC(=O)[C@H](Cc1c[nH]cn1)NC(=O)[C@H](CCCNC(=N)N)NC(=O)[C@H](Cc1c[nH]cn1)NC(=O)[C@@H](NC(=O)[C@H](CCCNC(=N)N)NC(=O)[C@@H](N)CO)[C@@H](C)O)[C@@H](C)CC)C(=O)N[C@H](C(=O)N1CCC[C@H]1C(=O)N[C@@H](CC(=O)O)C(=O)N[C@H](C(=O)N[C@@H](CC(N)=O)C(=O)N1CCC[C@H]1C(=O)N[C@@H](C)C(=O)N[C@@H](Cc1c[nH]c2ccccc12)C(=O)N[C@@H](Cc1ccc(O)cc1)C(=O)N[C@@H](C)C(=O)N[C@@H](CO)C(=O)N[C@@H](CCCNC(=N)N)C(=O)NCC(=O)N[C@H](C(=O)N[C@@H](CCCNC(=N)N)C(=O)N1CCC[C@H]1C(=O)N[C@H](C(=O)NCC(=O)N[C@@H](CCCNC(=N)N)C(=O)N[C@@H](Cc1ccccc1)C(N)=O)C(C)C)[C@@H](C)CC)[C@@H](C)CC)[C@@H](C)O [Analog 57] (H-SRTHRHSMEIK([Suc-TTDA(Palmitoyl)])TPDINPAWYASRGIRPVGRF-NH2; N-terminus assumed)
Ki (rat PrRP receptor): 0.36 ± 0.16 nM

CCCCCCCCCCCCCCCC(=O)NCCCOCCOCCOCCCNC(=O)CCC(=O)NCCCC[C@H](NC(=O)[C@@H](NC(=O)[C@H](CCC(=O)O)NC(=O)[C@H](CCSC)NC(=O)[C@H](CO)NC(=O)[C@H](Cc1c[nH]cn1)NC(=O)[C@H](CCCNC(=N)N)NC(=O)[C@H](Cc1c[nH]cn1)NC(=O)[C@@H](NC(=O)[C@H](CCC(=O)O)NC(=O)[C@@H](N)CO)[C@@H](C)O)[C@@H](C)CC)C(=O)N[C@H](C(=O)N1CCC[C@H]1C(=O)N[C@@H](CC(=O)O)C(=O)N[C@H](C(=O)N[C@@H](CC(N)=O)C(=O)N1CCC[C@H]1C(=O)N[C@@H](C)C(=O)N[C@@H](Cc1c[nH]c2ccccc12)C(=O)N[C@@H](Cc1ccc(O)cc1)C(=O)N[C@@H](C)C(=O)N[C@@H](CO)C(=O)N[C@@H](CCCNC(=N)N)C(=O)NCC(=O)N[C@H](C(=O)N[C@@H](CCCNC(=N)N)C(=O)N1CCC[C@H]1C(=O)N[C@H](C(=O)NCC(=O)N[C@@H](CCCNC(=N)N)C(=O)N[C@@H](Cc1ccccc1)C(N)=O)C(C)C)[C@@H](C)CC)[C@@H](C)CC)[C@@H](C)O [Analog 58] (H-SETHRHSMEIK([Suc-TTDA(Palmitoyl)])TPDINPAWYASRGIRPVGRF-NH2; N-terminus assumed)
Ki ([1]; CHO cells, human 125I-PrRP31): 3.79 ± 0.58 nM | Ki (rat PrRP receptor): 0.41 ± 0.28 nM

CCCCCCCCCCCCCCCC(=O)NCCCOCCOCCOCCCNC(=O)CCC(=O)NCCCC[C@H](NC(=O)[C@@H](NC(=O)[C@H](CCC(=O)O)NC(=O)[C@H](CCSC)NC(=O)[C@H](CO)NC(=O)[C@H](Cc1c[nH]cn1)NC(=O)[C@H](CCCNC(=N)N)NC(=O)[C@H](Cc1c[nH]cn1)NC(=O)[C@@H](NC(=O)[C@H](CCCNC(=N)N)NC(=O)[C@H](CO)NC(=O)CCC(=O)NCCCOCCOCCOCCCNC(=O)CCCCCCCCCCCCCCC)[C@@H](C)O)[C@@H](C)CC)C(=O)N[C@H](C(=O)N1CCC[C@H]1C(=O)N[C@@H](CC(=O)O)C(=O)N[C@H](C(=O)N[C@@H](CC(N)=O)C(=O)N1CCC[C@H]1C(=O)N[C@@H](C)C(=O)N[C@@H](Cc1c[nH]c2ccccc12)C(=O)N[C@@H](Cc1ccc(O)cc1)C(=O)N[C@@H](C)C(=O)N[C@@H](CO)C(=O)N[C@@H](CCCNC(=N)N)C(=O)NCC(=O)N[C@H](C(=O)N[C@@H](CCCNC(=N)N)C(=O)N1CCC[C@H]1C(=O)N[C@H](C(=O)NCC(=O)N[C@@H](CCCNC(=N)N)C(=O)N[C@@H](Cc1ccccc1)C(N)=O)C(C)C)[C@@H](C)CC)[C@@H](C)CC)[C@@H](C)O [Analog 59] ({TTDA(Palmitoyl)-Suc}-SRTHRHSMEIK([Suc-TTDA(Palmitoyl)])TPDINPAWYASRGIRPVGRF-NH2)
Ki (rat PrRP receptor): 2.82 ± 0.94 nM
